According to PubChem BioAssay AID504467 (National Center for Advancing Translational Sciences (NCATS), 2011):
The campaign covered roughly 330,000 compounds. About 7,700 (2.3%) were called active. Inconclusive results, whose numbers are uncertain, are shown with a selection of clear calls. The call rests on the fitted dose curve; in most records, active means well fitted inhibition curve with a large enough effect; inconclusive means small, poorly fitted or top-dose-only effect, or effect the other way; inactive means flat fitted curve, though single readings scatter. Where the call is inconclusive, the potency comes from a doubtful curve fit.

assay: qHTS screen for small molecules that inhibit ELG1-dependent DNA repair in human embryonic kidney (HEK293T) cells expressing luciferase-tagged ELG1; settings: HEK293T ELG1-luciferase reporter, luminescence, 16 h, DNA damage induced by 5-fluorouridine; series mostly up to 46.1 µM; further: nearly all actives have a fitted effect of over 55% in size
Outline: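 Reporter activity after DNA damage by 5-fluorouridine is monitored. Compound-treated cells incubate 16 hr at 37 °C, then ONE-Glo is added for 30 min before luminescence reading.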
Potency means the concentration at half of the fitted maximal effect.

Q: With `Cc1csc(NC(=O)C2=COCCO2)n1` as the molecule, how does the Potency read?
A: inconclusive: 18.3 µM [activator, partial curve]

Q: Which Potency does the source give for `CCCCn1c(SCC(=O)NC2CC2)nc2ccccc2c1=O` here?
A: inconclusive: 29.1 µM [activator, single point]

Q: Which Potency does the source give for `Cn1cnnc1SCc1ccc(-c2ccc(Br)cc2)o1` here?
A: inactive

Q: With `NNC(=O)c1ccc([N+](=O)[O-])c(CS(=O)(=O)c2ccc(Cl)cc2)c1` as the molecule, how does the Potency read?
A: inactive

Q: For `CC(=O)Nc1cccc(NC(=O)Nc2ccc(C(C)=O)cc2)c1`, which Potency is on record?
A: inconclusive: 11.2 µM [activator, partial curve, poor fit]

Q: For `c1ccc(-c2cnn3nnnc3n2)cc1`, which Potency is on record?
A: inconclusive: 0.92 µM [activator, full curve, poor fit]

Q: Which Potency does the source give for `Cc1ccc(-c2nn(CC(=O)N(C)C)c(=O)c3ccccc23)cc1S(=O)(=O)N(C)C` here?
A: inactive

Q: Which Potency does the source give for `N#C/C(=C\c1ccc(-c2ccc([N+](=O)[O-])cc2)o1)C(=O)Nc1nc(-c2cccs2)cs1` here?
A: inactive

Q: With `CCOC(=O)c1c(C)nc2c(c1-c1cc(OC)ccc1OC)C(=O)c1ccccc1-2` as the molecule, how does the Potency read?
A: inconclusive: 16.4 µM [inhibitor, single point]

Q: For `Cc1ccc(S(=O)(=O)CCC(=O)OCC(=O)NC(C)c2ccc(F)cc2)cc1` (stereo unspecified), which Potency is on record?
A: inconclusive: 4.11 µM [activator, partial curve, poor fit]

Q: Which Potency does the source give for `CC(C)c1nc(NCCO)c(C#N)c2c1CCCC2` here?
A: inconclusive: 14.6 µM [inhibitor, partial curve, poor fit]

Q: Which Potency does the source give for `CCN(CC)C(=O)COc1ccc2c(-c3ccccc3)cc(=O)oc2c1` here?
A: inactive

Q: With `O=c1oc2ccccc2cc1-c1nc(-c2cccs2)cs1` as the molecule, how does the Potency read?
A: inconclusive: 18.4 µM [activator, partial curve]

Q: For `Cc1ccc(C(=O)N/N=C2\CCCc3ccccc32)c(C)c1`, which Potency is on record?
A: inconclusive: 18.3 µM [activator, partial curve]

Q: With `CC(=O)CSc1ccc(-c2nc3ccccc3[nH]2)cn1` as the molecule, how does the Potency read?
A: inconclusive: 1.78 µM [activator, partial curve, poor fit]

Q: With `CCOc1ccc(Br)cc1CSC(=N)N` as the molecule, how does the Potency read?
A: inconclusive: 1.84 µM [inhibitor, full curve]

Q: With `CCOC(=O)CNC(=O)/C=C/c1ccc2c(c1)OCO2` as the molecule, how does the Potency read?
A: inconclusive: 23.1 µM [activator, single point]

Q: Which Potency does the source give for `Cc1ccc2c(=O)n3c(nc2c1)C(CC(C)C)NC(=O)c1ccc(Cl)cc1-3` (stereo unspecified) here?
A: inactive

Q: For `COc1ccc(CNC(=O)C2CCCN2S(=O)(=O)c2ccc(C)cc2)cc1` (stereo unspecified), which Potency is on record?
A: inconclusive: 0.708 µM [inhibitor, full curve, poor fit]

Q: For `CN(C)C(=O)COc1ccc(C(=O)/C=C/c2cccnc2)cc1`, which Potency is on record?
A: inconclusive: 16.4 µM [activator, partial curve]

Q: With `CCC(Br)C(=O)Nc1ccc(OC)cc1` (stereo unspecified) as the molecule, how does the Potency read?
A: inconclusive: 32.6 µM [activator, partial curve, poor fit]

Q: For `Cc1ccccc1NC(=O)C(=O)NCCCN1CCCC1=O`, which Potency is on record?
A: inconclusive: 9.2 µM [activator, partial curve]

Q: Which Potency does the source give for `COc1cc(OC)c(N(C)S(=O)(=O)c2cccc(C(=O)NC(C)C3CC4CCC3C4)c2)cc1Cl` (stereo unspecified) here?
A: inactive

Q: With `C=C(C(=O)Oc1ccccc1C(C)(C)C)c1ccccc1` as the molecule, how does the Potency read?
A: inconclusive: 29.1 µM [inhibitor, single point]

Q: Which Potency does the source give for `Cc1nccn1CCOc1ccccc1Cl` here?
A: inactive

Q: With `OCCCNc1ncnc2c1cnn2-c1ccc(Cl)cc1` as the molecule, how does the Potency read?
A: inconclusive: 1.16 µM [activator, partial curve]

Q: For `CCN1CCN(c2sc(S(C)(=O)=O)nc2S(=O)(=O)c2ccc(Cl)cc2)CC1`, which Potency is on record?
A: inconclusive: 29.1 µM [inhibitor, single point]

Q: For `COC(=O)c1ccc(C(=O)OC)c(NC(=O)CSCC(=O)O)c1`, which Potency is on record?
A: inactive

Q: For `CCOC(=O)C1=C(COC(=O)[C@@H]2CCCN2S(=O)(=O)c2ccc(C)cc2)NC(=O)NC1C` (stereo partly specified), which Potency is on record?
A: inconclusive: 14.6 µM [activator, partial curve, poor fit]

Q: Which Potency does the source give for `COC(=O)c1ccccc1NC(=O)c1cn(-c2ccc(C)c(C)c2)c(=O)c2ccccc12` here?
A: active: 9.2 µM

Q: With `Cc1ccc(OCCC(=O)OCC(=O)NC(=O)c2ccccc2)cc1` as the molecule, how does the Potency read?
A: inactive

Q: Which Potency does the source give for `Cc1cc(OC(C)C(=O)NCCCN2CCOCC2)c2c(C)c(C)c(=O)oc2c1` (stereo unspecified) here?
A: inconclusive: 11.6 µM [activator, partial curve]

Q: For `CCc1cc2c(NCc3ccco3)ncnc2s1`, which Potency is on record?
A: inactive

Q: Which Potency does the source give for `Cc1cc(C)c(C)c(S(=O)(=O)N2CCN(CC(=O)Nc3sccc3C#N)CC2)c1C` here?
A: inconclusive: 16.4 µM [inhibitor, partial curve, poor fit]

Q: For `Fc1ccc(-c2nnc(-c3ccc(Cl)cc3)o2)cc1`, which Potency is on record?
A: inconclusive: 9.2 µM [activator, partial curve]

Q: Which Potency does the source give for `CCOc1ccc(N(CC(=O)NC2CCCCC2)C(=O)CCC(=O)Nc2ccccn2)cc1` here?
A: inactive

Q: With `COc1ccc(OCc2cccc(C(=O)Nc3ccc(CN4CCCCC4)cc3)c2)cc1` as the molecule, how does the Potency read?
A: inconclusive: 2.06 µM [activator, full curve]

Q: Which Potency does the source give for `CCCNC(=O)c1ccc(N2CCC3(CC2)CC(c2ccccc2)=NO3)c(NC(=O)c2ccccc2)c1` here?
A: active: 6.51 µM

Q: Which Potency does the source give for `CCCN1C(=O)c2cc(C(=O)Nc3ccccc3OC)ccc2C1Nc1ccccc1OC` (stereo unspecified) here?
A: inconclusive: 29.1 µM [inhibitor, single point]

Q: For `CCCCn1c(CCNC(=O)CCC)nc2ccccc21`, which Potency is on record?
A: inactive

Q: For `CNC(=S)Nc1ccc(OC(F)(F)F)cc1`, which Potency is on record?
A: inactive

Q: Which Potency does the source give for `O=C1c2cccc3c([N+](=O)[O-])ccc(c23)C(=O)N1c1ccc(Cl)cn1` here?
A: inconclusive: 4.61 µM [inhibitor, partial curve, poor fit]

Q: For `Fc1ccccc1NC(=S)NNc1ncc(C(F)(F)F)cc1Cl`, which Potency is on record?
A: inconclusive: 2.91 µM [inhibitor, full curve]

Q: For `COc1ccc(NC(=O)c2cccc(N3C(=O)C4C5C=CC(C5)C4C3=O)c2)cc1Cl` (stereo unspecified), which Potency is on record?
A: inconclusive: 4.61 µM [inhibitor, full curve]

Q: With `CCCn1nnc(NC(=O)/C=C/c2ccccc2)n1` as the molecule, how does the Potency read?
A: inconclusive: 23.1 µM [activator, partial curve, poor fit]

Q: Which Potency does the source give for `CC(=O)Nc1cccc(Oc2nc(C)cc(C)c2C#N)c1` here?
A: inconclusive: 16.4 µM [inhibitor, partial curve, poor fit]

Q: Which Potency does the source give for `CCOC(=O)c1sc(Nc2ccc(Br)cc2)nc1C` here?
A: inconclusive: 18.3 µM [activator, single point]

Q: Which Potency does the source give for `S=c1[nH]cnc2scc(-c3ccc(Br)cc3)c12` here?
A: inconclusive: 16.4 µM [inhibitor, single point]

Q: For `CCOC(=O)C(NS(=O)(=O)c1ccccc1)(C(F)(F)F)P(=O)(OCC(C)C)OCC(C)C` (stereo unspecified), which Potency is on record?
A: inconclusive: 18.4 µM [inhibitor, single point]

Q: For `Cc1ccc2nc(N3C(=O)C(O)=C(C(=O)c4ccc(C)o4)C3c3ccco3)sc2c1` (stereo unspecified), which Potency is on record?
A: inconclusive: 13 µM [activator, partial curve]

Q: Which Potency does the source give for `CC(C)Cn1c(N)c(C(=O)COC(=O)c2c(O)c(Cl)cc(Cl)c2Cl)c(=O)n(C)c1=O` here?
A: inactive

Q: With `Cc1ccc2c(Cl)c(C(=O)NCc3cccnc3)sc2c1` as the molecule, how does the Potency read?
A: inactive

Q: Which Potency does the source give for `O=C(NC1CCCCC1)C(c1ccc(O)cc1)N(CC1CCCO1)C(=O)C1COc2ccccc2O1` (stereo unspecified) here?
A: inactive

Q: With `CC1CCCCN1S(=O)(=O)c1ccc(S(=O)(=O)N(CC(=O)Nc2ccccc2)Cc2cccs2)cc1` (stereo unspecified) as the molecule, how does the Potency read?
A: active: 18.4 µM

Q: With `Cc1c(Cl)c(-c2n[nH]c(=S)n2-c2ccc(F)cc2)nn1C` as the molecule, how does the Potency read?
A: inconclusive: 29.1 µM [activator, single point]

Q: With `CCNc1nc(NCC)nc(N/N=C/c2ccc(Br)cc2)n1` as the molecule, how does the Potency read?
A: inactive

Q: With `CCOC(=O)Nc1c(O)ccc2oc(C)c(-c3ccccc3)c12` as the molecule, how does the Potency read?
A: inconclusive: 32.6 µM [inhibitor, single point]

Q: Which Potency does the source give for `O=C(CCNc1ccc(Cc2ccncc2)cc1)c1cccc([N+](=O)[O-])c1` here?
A: inactive

Q: Which Potency does the source give for `C=CC[C@@H](CC(=O)N[C@H](CO)Cc1ccccc1)C(=O)N[C@@H](COC(=O)[C@@H](CC=C)Cc1ccc(F)cc1)Cc1ccccc1` here?
A: inconclusive: 20.6 µM [activator, single point]

Q: For `CCOC(=O)C(=O)NNc1ccc(Cl)cc1`, which Potency is on record?
A: inconclusive: 29.1 µM [inhibitor, single point]

Q: With `O=C(CCNC(=O)c1ccco1)Nc1ccc(F)c(Cl)c1` as the molecule, how does the Potency read?
A: inactive

Q: Which Potency does the source give for `Cc1ccc(NC(=O)C(OC(=O)c2ccccc2Cl)c2ccccc2)cc1Cl` (stereo unspecified) here?
A: inconclusive: 0.461 µM [inhibitor, partial curve, poor fit]

Q: For `O=C(Nc1ccc(SC(F)F)cc1)C12CCC(CC1)C2`, which Potency is on record?
A: inconclusive: 18.4 µM [activator, partial curve, poor fit]

Q: Which Potency does the source give for `COc1cc2c(cc1OC)C(c1ccccc1Cl)N(C)CC2` (stereo unspecified) here?
A: inactive

Q: With `CCc1ccc(NC(=O)C(=O)NCC2CCCN2S(=O)(=O)c2ccccc2)cc1` (stereo unspecified) as the molecule, how does the Potency read?
A: inconclusive: 18.3 µM [inhibitor, single point]

Q: With `COc1cc(/C=N/n2cnnc2)ccc1OCCSc1ccc(C)cc1` as the molecule, how does the Potency read?
A: inconclusive: 6.51 µM [activator, partial curve]

Q: For `Cc1cc2c(=O)oc(-c3ccc(F)cc3)nc2s1`, which Potency is on record?
A: inconclusive: 20.6 µM [inhibitor, single point]

Q: For `O=C(NCCN1CCOCC1)c1ccccc1OCc1ccccc1`, which Potency is on record?
A: inactive

Q: Which Potency does the source give for `C(=N\n1cnnc1)/c1ccc(OCc2cccc3ccccc23)cc1` here?
A: inconclusive: 4.11 µM [activator, full curve]

Q: Which Potency does the source give for `Cc1cc(CNC(=O)COc2ccc(F)cc2F)c2ccccc2n1` here?
A: inconclusive: 4.61 µM [inhibitor, partial curve]

Q: Which Potency does the source give for `CCN(c1cccc2ccccc12)S(=O)(=O)c1ccc(Cl)nc1` here?
A: inconclusive: 18.3 µM [inhibitor, partial curve, poor fit]
